This note sets out measurements from PubChem BioAssay AID1347423 (Functional Genomics Laboratory (NCATS/FGL), 2020).

The whole screen tested about 52,000 sequences, of which about 210 (0.4%) were called active.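 How the source made its calls: active means gene whose silencing raises cell survival under the drug, median off-target-corrected z-score across its silencing RNAs 2 or more; inactive means the rest.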 The list shows a part of the results.

The nature of this test: Resistance to Poly (ADP-Ribose) Polymerase inhibitor: Gene Identification via Genome-wide siRNA Screen. As to conditions: mouse BRCA2 R2336H ES cells, olaparib, CellTiter-Glo viability; stronger effect = higher value. The method in brief:
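Genome-wide siRNA screen (3 siRNAs/gene, 20 nM) in mouse ES cells carrying hypomorphic BRCA2 R2336H; olaparib 500 nM added 48 h post-transfection, CellTiter-Glo viability 72 h later. Normalized to plate-median negative control; MAD z-scores, gene median, seed-adjusted.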
In general terms: Cellular ATP, detected with luciferase, serves as a proxy for viable cell number.
For the sequence GGCUACAGGGAACAUAGAGTT against Map17, the z-score is inactive: -0.439.

As for CGCCAUCAAAUAUGAAGCATT against Vps4a, the z-score is inactive: -0.298. The same measure for “GGCAACGGAAGAAAAUUAATT against 4930429B21Rik”: inactive: -0.82; for GGUUCUAUUUGUGAAAAGUTT against Adam10: inactive: 0.789; for GGAUGCUGGCUGAUUUUCUTT against Olfr1019: inactive: -0.876. Take GGAAUUUGGUCUAUGCUUGTT against Stra6: the z-score is inactive: -0.0623. For the sequence “CCUCGAUAUGAGUUUUUGATT against 9130413I22Rik”, the z-score is inactive: 0.603. GGAUGCUAAAAAUGCGGGATT against LOC223706: the z-score was inactive: -0.125.

As for CCUUAUUUGCUUAUCAUAGTT against Zfp367, the z-score is inactive: -0.551. In the case of GGACAUCUGACAUCCAGUGTT against Pmvk, the z-score was inactive: -0.7.

In the case of CGAAAAUCGAGAAUUCUUCTT against Nalp9b, the z-score is inactive: 0.292. As for CCAUCCUAAAGAAUGUUAATT against Nf1, the z-score is inactive: -2.13.

Regarding GGAAUUUAAGCAGAAUGUGTT against Fcho1, the z-score is inactive: -0.603. Take “GGAGCUGUGCGGUCUGUUATT against 0610009K11Rik”: the z-score was inactive: -0.572. For the sequence GGACAUCGAAGUCCAACACTT against Plekhm1, the z-score was inactive: 1.35. Then GGUUGUAGGAAUAAUUGAATT against Nup160, with inactive: -1.59. The same measure for CCAACUAAGAUGGAUCAAUTT against Commd2: inactive: -0.097. Then GGAAGCCAAUGUCAAGUGCTT against Cbx1, with inactive: -0.293; and “GGACAUCAUUGAUGGAUUUTT against D830032G16Rik”, with inactive: 1.15; and GCCUGACGAAGGUUUCUAUTT against Neo1, with inactive: 0.0676.

GGAACAGACAUAUAAGCAUTT against Blvra: the z-score is inactive: 0.882. Then GCACUUACACUCUGUUUAATT against Fgf13, with inactive: -0.219; and “GGAGAACUGUAAAUAAACUTT against 9030623N16Rik”, with inactive: -0.203.

Turning to “GCCCUCAGGUGGUUCUUAATT against C030036P15Rik”, the z-score was inactive: -1.76. As for GCUCAUCUUAUCCUCUAAGTT against Cts7, the z-score is inactive: -0.231.

Regarding GGUACGACUUGGAAGAAAUTT against Rock2, the z-score was inactive: -0.0405.

For the sequence CCACUAGCUAUCUCAUACCTT against Tktl1, the z-score was inactive: 0.385. Consider “GGUGAAAUUGCUCAGAUAATT against 4430402O11Rik”, for which the z-score is inactive: -0.162. Regarding “GGCAUCACUUUCUUUCCUUTT against D230019K24Rik”, the z-score is inactive: 0.115. Then “GGAUUUUCCAGCCAAGGAATT against 4122402O22Rik”, with inactive: -0.488; and “GGCUUUUUGAGGUAUUUCATT against 9630008K15Rik”, with inactive: -1.8; and GGUUCCAACAAUUGUAAAGTT against Chl1, with active: 2.35. Take CCGGCAAUGACUGUGAAUCTT against Adamts7: the z-score was inactive: 0.0748. As to GGAUCCAUCUGUUGGCAACTT against Slc5a2, the z-score is inactive: 0.167. As for CCUCCUGAUAUCGAGUUCCTT against Dnm1, the z-score is inactive: 0.281. Turning to GGAUCACAACAAAAUAUCCTT against LOC622129, the z-score is inactive: 0.262. Turning to GCAUCGAUCUUGAGUUAGATT against Hebp1, the z-score was inactive: -0.48.

With “CCUGUAUUGGGAACAAUGUTT against 2900006N09Rik”, the z-score is inactive: -0.823. As for “GGACUGAAGCUUACUUUCUTT against E230011A21Rik”, the z-score is inactive: -2.1. Turning to GCUAUCUCUGCUAAUAAAGTT against Col6a1, the z-score is inactive: 1.05. As for “GGAAGAAAAGUCUCAGAAATT against 1200016B10Rik”, the z-score was inactive: 0.8. Turning to GCCUCAUUUGAUCAAUGUCTT against Actr2, the z-score was inactive: 0.802. In the case of GGCCGUAUGUGAAUUUGAATT against Tnfaip6, the z-score was inactive: -0.201. As to “GGCUUAAAAUGUUAGUGAATT against 1110014F12Rik”, the z-score was inactive: 1.37.

On to GGAAAAAAGUUCAUCGUGGTT against Kcnma3, for which the z-score is inactive: 0.385.

Regarding “GGCCGUUAUGUUUUACAAGTT against 1810055D05Rik”, the z-score is inactive: 0.396. On to GGCUUAAGGGAAUAUUUUCTT against Tmem14a, for which the z-score is inactive: 0.488. Take GCUUUAUUAACCCAUCAAATT against BC028975: the z-score was inactive: 1.87. Then GGCCUAAAUUGACAAACUUTT against Mgea5, with inactive: 0.366; and GGUAUUAUGAUCAGAUUUGTT against Pdcd6ip, with inactive: 0.326.

With “CCAUGACAAUGAAUAUCCUTT against 1700025F22Rik”, the z-score is inactive: 1.21. As for “GGUUGUCAAGGCUGCUCAUTT against MGI:1915703”, the z-score is inactive: -1.17. Regarding GGAAAUACUAUGUUUGACUTT against Gja5, the z-score was inactive: 0.449. For AGGAAUCCUCUAAAUGACCTT against V1rd22, the z-score is inactive: -1.55. On to “GGAAAACAAGUGGAAAGGGTT against C130071C03Rik”, for which the z-score was inactive: -0.121. Regarding GGGUGAUAAUGAGUCUACCTT against Pja1, the z-score was inactive: 0.794. The same measure for GGACAAUACGGAGAAAGAUTT against Kdt1: inactive: -1.46. For the sequence GGAAAAAGAAUUGAGAGCUTT against Dhx15, the z-score was inactive: 0.633. On to “GCAACAAGCCUAGCUAAUCTT against A630038E17Rik”, for which the z-score is inactive: 0.751.

As to GGCAAUUCAUUGCAUGUUATT against Cdc42ep3, the z-score is inactive: 0.422. Then GGAACUCUCAGAUCUGAUUTT against Ppl, with inactive: -0.382.

As to GGUGAUAGUACUGUCAGCCTT against Olfr1225, the z-score was inactive: 0.0798.

Turning to GGGACCAGAGGAAACAGAATT against Tnfsf13b, the z-score was inactive: -1.57. With “GGCUUUCGUGUUUUCAGUUTT against 4921524J17Rik”, the z-score is inactive: -0.618. For GCACCUGAAGACUAAUGUUTT against Gcnt2, the z-score is inactive: -0.566. Regarding GGCCAAAAAUUUCAUCUCUTT against Itgae, the z-score was inactive: 0.132. Consider “CCAAAACAACCACAAGUAGTT against A930006D11”, for which the z-score was inactive: -2.39. As for CCAUGACACUCAUUCCCAGTT against Tbc1d7, the z-score was inactive: 0.258.

On to GCCCAAAUUGGGUUCAUCATT against Pde9a, for which the z-score was inactive: -1.25. Consider GCGCACCGUCAAAGUGAAATT against Atp5o, for which the z-score was inactive: -1.08. As to GGAACAACCACGGAACCCATT against Il1r2, the z-score was inactive: -0.502. The same measure for CGAGAUUGUGGAUAGCUUUTT against Eif4a1: inactive: -1.53; for “GGCUAUGGCUUUUGUAUGUTT against 2610034B18Rik”: inactive: 0.307; for GGAGUUUUGAAUAAACCAATT against Tmc7: inactive: -2.15. Turning to CGACUUCGUCAUAAGAAUATT against Map3k6, the z-score is inactive: 0.322. Consider GGUUGAUGAAGCUAAUUUATT against Ube2l3, for which the z-score is inactive: -0.039.

Turning to GGAUUCAGGCUGGAAAAUATT against Ush3a, the z-score was inactive: -1.84. With GGUGAAGCUGCUGAGAAAGTT against Angptl1, the z-score is inactive: 0.0785. As to GGCUGCAUCUAUAACAUAATT against Olfr611, the z-score was inactive: -0.352. CGCAUUACAAUUCAUCAUCTT against Rnf170: the z-score was inactive: -0.759. As for GGUCCUAGAGAAUCUCCAGTT against Tst, the z-score is inactive: -2.54. With CCAAGUAACAGUUUAGUAGTT against Nme5, the z-score was inactive: 1.13. Then “GCUUAAUCGAACCAGAGUGTT against 2610524H06Rik”, with inactive: 0.477; and GGGAAAUGCACUUAAAUGATT against Tnrc9, with inactive: 0.242. As to GUCACGAGAUUCAAGAUGUTT against Svs7, the z-score was inactive: 0.0855. For the sequence GAGGUCAUUCCACGACGGUTT against Prpmp5, the z-score was inactive: 1.26. The same measure for GGAAGUGGUCCACCUGAUCTT against Mms19l: inactive: -0.759. In the case of CCUUAAAAGUAACCACUGUTT against Slc6a6, the z-score was inactive: -0.21. In the case of GCUGGAGACUACUACGUGCTT against Bex2, the z-score is inactive: -0.0658. On to GACCACAAUAUUGAGGAUCTT against BC031441, for which the z-score is inactive: -0.136. The same measure for GGUGACUGAAAUCAAACACTT against Il9r: inactive: 0.769.

Regarding CGAAUCCAUGAUAUUGUACTT against Dncl2b, the z-score is inactive: -1.24. As for “GGCCAUUAAAAACACGGUATT against A130022J15Rik”, the z-score was inactive: -1.07.

Take “GGUGCUGGAGAUGAAGAACTT against C130038G02Rik”: the z-score was inactive: -2.16. The same measure for “GGACUCAACUGGACAGCCUTT against E330037G11Rik”: inactive: -0.741; for GGCAAUCAGAUCAUUUACATT against BC047207: inactive: 0.581; for GGCCUUUCUAAAUUCAACATT against Top3a: inactive: 2.67. The same measure for GACGCAGAAAUGGUUUAAGTT against Hod: inactive: 0.425. The same measure for “GGUAGCAAUCAUUUUCCUUTT against 4933415L06Rik”: inactive: 0.184; for GGACUGACUGGAUUUUUCCTT against Adamts12: inactive: -0.264; for GGUGAACGAACAUUGGUAUTT against Sh3d4: inactive: -0.736. Turning to CGAGGAAUAACAACAGCCUTT against Itk, the z-score is inactive: -1.55. Turning to GGCUGAUUCAUUUGGGAACTT against Olfr9, the z-score was inactive: -1.56.
